Where a name gives a salt, the structure may show the parent alone. Some of the results follow. This is a noisy data set.

The test system of the test is Peyronie's disease tunica albuginea primary fibroblasts. Description: cell viability (DRAQ5 nuclear stain) relative to TGF-beta1-only control; higher = more viable cells. The following applies: 10 µM; TGF-beta1 10 ng/mL; 72 h.
In the case of `Cc1onc(-c2ccccc2)c1-c1ccc(S(N)(=O)=O)cc1` [Valdecoxib], the cell viability was 101%.

With `CO/N=C(\C(=O)N[C@@H]1C(=O)N2C(C(=O)OCOC(=O)C(C)(C)C)=C(/C=C\c3scnc3C)CS[C@H]12)c1csc(N)n1` [Cefditoren Pivoxil], the cell viability is 90.1%.

As for `CN(N=O)C(=O)NC1C(O)OC(CO)C(O)C1O` (configuration not stated) [Streptozotocin (STZ)], the cell viability worked out at 80.9%.

Consider `Oc1ncnc2[nH]ncc12` [Allopurinol], for which the cell viability was 95.5%.

Turning to `C=C[C@]1(C)C[C@@H](OC(=O)CS[C@@H]2C[C@H]3CC[C@@H](C2)N3C)[C@]2(C)[C@H](C)CC[C@]3(CCC(=O)[C@H]32)[C@@H](C)[C@@H]1O` [Retapamulin], the cell viability was 82.7%.

Turning to `CCOC(=O)C1=C[C@@H](OC(CC)CC)[C@H](NC(C)=O)[C@@H](N)C1` [Oseltamivir Phosphate], the cell viability was 92.8%.

Take `C[C@]12CCC(=O)C=C1CC[C@@H]1[C@@H]2[C@@H](O)C[C@@]2(C)[C@H]1CC[C@]2(O)C(=O)CO` [Hydrocortisone]: the cell viability was determined as 75%.

In the case of `Cn1nnc(-c2ccc(-c3ccc(N4C[C@H](COP(=O)(O)O)OC4=O)cc3F)cn2)n1` [Tedizolid Phosphate], the cell viability was 97.5%.

`CN[C@@H]1[C@H](O[C@H]2[C@H](O[C@H]3[C@H](O)[C@@H](O)[C@H](N=C(N)N)[C@@H](O)[C@@H]3N=C(N)N)O[C@@H](C)[C@]2(O)C=O)O[C@@H](CO)[C@H](O)[C@H]1O` [Streptomycin sulfate]: the cell viability was determined as 85.7%.

As for `Nc1nc(Cl)nc2c1ncn2[C@H]1C[C@H](O)[C@@H](CO)O1` [Cladribine], the cell viability is 69%.

For `OCCOCCN1CCN(C2=Nc3ccccc3Sc3ccccc32)CC1` [Quetiapine Fumarate], the cell viability came out at 89.2%.

`CC1(C)S[C@@H]2[C@H](NC(=O)[C@H](N)c3ccc(O)cc3)C(=O)N2[C@H]1C(=O)O` [Amoxicillin]: the cell viability was found to be 86.9%.

On to `CC1(C)S[C@@H]2[C@H](NC(=O)[C@H](N)c3ccc(O)cc3)C(=O)N2[C@H]1C(=O)O` [Amoxicillin trihydrate], for which the cell viability was 87.5%.

For `CC1(C)S[C@@H]2[C@H](NC(=O)[C@H](N)c3ccc(O)cc3)C(=O)N2[C@H]1C(=O)O` [Amoxicillin Sodium], the cell viability turned out to be 90.2%.

For `CCC(=O)O[C@@H](O[P@](=O)(CCCCc1ccccc1)CC(=O)N1C[C@H](C2CCCCC2)C[C@H]1C(=O)O)C(C)C` [Fosinopril Sodium], the cell viability came to 84.6%.

As for `CCCCC(=O)O[C@H]1CC[C@H]2[C@@H]3CCc4cc(O)ccc4[C@H]3CC[C@]12C` [Estradiol valerate], the cell viability was found to be 99.7%.

In the case of `O=C(OC[C@H]1O[C@@H](OC(=O)c2cc(O)c(O)c(OC(=O)c3cc(O)c(O)c(O)c3)c2)[C@H](OC(=O)c2cc(O)c(O)c(OC(=O)c3cc(O)c(O)c(O)c3)c2)[C@@H](OC(=O)c2cc(O)c(O)c(OC(=O)c3cc(O)c(O)c(O)c3)c2)[C@@H]1OC(=O)c1cc(O)c(O)c(OC(=O)c2cc(O)c(O)c(O)c2)c1)c1cc(O)c(O)c(OC(=O)c2cc(O)c(O)c(O)c2)c1` [Tannic acid], the cell viability stood at 77.6%.

Regarding `N=C(N)c1ccc(OCCCCCOc2ccc(C(=N)N)cc2)cc1` [Pentamidine isethionate], the cell viability amounted to 83.4%.

Turning to `Fc1ccc(C(c2ccc(F)cc2)N2CCN(C/C=C/c3ccccc3)CC2)cc1` [Flunarizine 2HCl], the cell viability is 92.3%.

For the compound `Cc1oncc1C(=O)Nc1ccc(C(F)(F)F)cc1` [Leflunomide], the cell viability worked out at 95.4%.

With `COc1ccc(C(Cl)=C(c2ccc(OC)cc2)c2ccc(OC)cc2)cc1` [Chlorotrianisene], the cell viability was determined as 83.4%.

Consider `O=C(O)c1cccnc1Nc1cccc(C(F)(F)F)c1` [Niflumic acid], for which the cell viability came out at 90%.

In the case of `CC1CC(OC(=O)C(O)c2ccccc2)CC(C)(C)C1` (configuration not stated) [Cyclandelate], the cell viability is 81.8%.

With `CC(CCc1ccccc1)NCC(O)c1ccc(O)c(C(N)=O)c1` (configuration not stated) [Labetalol HCl], the cell viability amounted to 84.5%.

With `CCOC(=O)[C@H](CCc1ccccc1)N[C@@H](C)C(=O)N1Cc2ccccc2C[C@H]1C(=O)O` [Quinapril HCl], the cell viability was determined as 98.5%.

On to `Cc1cn([C@H]2O[C@@H](CO)[C@H](O)[C@H]2F)c(=O)[nH]c1=O` [Clevudine], for which the cell viability is 96%.

As to `Cc1onc(-c2c(Cl)cccc2Cl)c1C(=O)N[C@@H]1C(=O)N2[C@@H]1SC(C)(C)[C@@H]2C(=O)O` [Dicloxacillin Sodium], the cell viability was found to be 77.4%.

Regarding `CN1C(C)(C)CCCC1(C)C` [Pempidine], the cell viability is 93.4%.

On to `C[N+](C)(C)CCCCCC[N+](C)(C)C` [Hexamethonium?Dibromide], for which the cell viability was 99%.

Consider `O=c1ccc2ccc(OCCCCN3CCN(c4cccc5sccc45)CC3)cc2[nH]1` [Brexpiprazole], for which the cell viability was 88.3%.

With `CN(C)/N=N/c1[nH]cnc1C(N)=O` [Dacarbazine], the cell viability was found to be 101%.

For `Cc1cc2c(cc1S(N)(=O)=O)S(=O)(=O)CCC2` [Meticrane], the cell viability amounted to 60.9%.

For the compound `CC(C)OC(=O)[C@H](C)N[P@](=O)(OC[C@H]1O[C@@H](n2ccc(=O)[nH]c2=O)[C@](C)(F)[C@@H]1O)Oc1ccccc1` [Sofosbuvir (PSI-7977, GS-7977)], the cell viability turned out to be 86.5%.

For `CC1(C)S[C@@H]2[C@H](NC(=O)[C@H](NC(=O)N3CCNC3=O)c3ccccc3)C(=O)N2[C@H]1C(=O)O` [Azlocillin sodium salt], the cell viability is 96.5%.

As for `CC(C)c1ccc2oc3nc(N)c(C(=O)O)cc3c(=O)c2c1` [Amlexanox], the cell viability worked out at 89.7%.

With `COC(=O)Nc1nc2cc(C(=O)c3ccccc3)ccc2[nH]1` [Mebendazole], the cell viability is 62.2%.

On to `CC(=O)Nc1ccccc1` [Acetanilide], for which the cell viability was 92.8%.

As for `CC(C)(C)C(=O)Oc1ccc(S(=O)(=O)Nc2ccccc2C(=O)NCC(=O)O)cc1` [Sivelestat (ONO-5046)], the cell viability is 94.9%.

In the case of `CC(C)(C)C(=O)Oc1ccc(S(=O)(=O)Nc2ccccc2C(=O)NCC(=O)O)cc1` [Sivelestat sodium tetrahydrate], the cell viability turned out to be 93.5%.

As for `CC(C(=O)O)c1ccc2c(c1)Cc1cccnc1O2` (configuration not stated) [Pranoprofen], the cell viability is 91.3%.

Regarding `C[C@H]1COc2c(C3(N)CC3)c(F)cc3c(=O)c(C(=O)O)cn1c23` [Pazufloxacin mesylate], the cell viability came to 93.6%.

As for `C[N+]1(C)[C@@H]2CC[C@H]1C[C@@H](OC(=O)C(O)c1ccccc1)C2` (some centres not stated) [Homatropine Methylbromide], the cell viability came out at 68.8%.

Usually cell viability stands for a read-out of living cells in per cent, often relative to untreated cells.

These data come from the supplement of paper PMC9744312.
